These are yes or no findings as the source states them, for the method shown. Binding seen in cells or lysates may run through a third protein. Binding can be weak; no strength is given.
Molecular target: cathepsin L (human (endogenous in SUM149)) (UniProt P07711)
Assay: co-IP; SUM149 nuclear lysate (300 mM NaCl, 0.5% NP40), sonicated, diluted twofold, DNase I digested; 5 µg specific antibody (KDM4C, GRHL2 or CTSL) or isotype IgG overnight at 4 °C, protein A/G magnetic beads, immunoblot with 10% input

By UniProt entry, the sequences of proteins in these tests, tags left out. Where a name states a change or a piece, a line headed by the entry shows the natural chain unless it says otherwise.
UniProt P07711: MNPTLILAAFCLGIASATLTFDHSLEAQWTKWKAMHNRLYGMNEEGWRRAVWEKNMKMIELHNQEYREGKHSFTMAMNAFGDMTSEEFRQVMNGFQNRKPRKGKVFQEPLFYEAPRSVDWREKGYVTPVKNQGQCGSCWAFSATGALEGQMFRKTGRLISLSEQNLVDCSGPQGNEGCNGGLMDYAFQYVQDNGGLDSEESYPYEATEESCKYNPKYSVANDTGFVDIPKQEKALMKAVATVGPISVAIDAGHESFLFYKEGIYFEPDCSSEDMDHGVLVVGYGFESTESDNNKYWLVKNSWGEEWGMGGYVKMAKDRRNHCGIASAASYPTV

B1: grainyhead-like 2 transcription factor (protein, UniProt Q6ISB3 1-625)
chain: MSQESDNNKRLVALVPMPSDPPFNTRRAYTSEDEAWKSYLENPLTAATKAMMSINGDEDSAAALGLLYDYYKVPRDKRLLSVSKASDSQEDQEKRNCLGTSEAQSNLSGGENRVQVLKTVPVNLSLNQDHLENSKREQYSISFPESSAIIPVSGITVVKAEDFTPVFMAPPVHYPRGDGEEQRVVIFEQTQYDVPSLATHSAYLKDDQRSTPDSTYSESFKDAATEKFRSASVGAEEYMYDQTSSGTFQYTLEATKSLRQKQGEGPMTYLNKGQFYAITLSETGDNKCFRHPISKVRSVVMVVFSEDKNRDEQLKYWKYWHSRQHTAKQRVLDIADYKESFNTIGNIEEIAYNAVSFTWDVNEEAKIFITVNCLSTDFSSQKGVKGLPLMIQIDTYSYNNRSNKPIHRAYCQIKVFCDKGAERKIRDEERKQNRKKGKGQASQTQCNSSSDGKLAAIPLQKKSDITYFKTMPDLHSQPVLFIPDVHFANLQRTGQVYYNTDDEREGGSVLVKRMFRPMEEEFGPVPSKQMKEEGTKRVLLYVRKETDDVFDALMLKSPTVKGLMEAISEKYGLPVEKIAKLYKKSKKGILVNMDDNIIEHYSNEDTFILNMESMVEGFKVTLMEI
- binding: binds

Reference: article PMC12165855
